# About 4,300 (3.1%) of roughly 140,000 compounds were called active. The inconclusive results got no clear call from the source; some entries with a clear call stand among them for comparison.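 The calls were made as follows: active = readout at or below -70, meaning at least 70% loss of cells showing the perinucleolar compartment, a nuclear body marking cancer cells; inconclusive = readout between -30 and a set limit; inactive = the rest.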
# Experiment: High Content Assay for Compounds that inhibit the Assembly of the Perinucleolar Compartment;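 also: plate controls were DMSO wells for no effect and camptothecin positive control wells for full effect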
# Details: PC3M PTB-GFP, PNC prevalence imaging, 16 h; at 10 µM; hits give low values
# How it was run: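 Read-out is percentage of cells bearing a perinucleolar compartment, from automated 20x imaging of fixed, Hoechst-stained PC3M PTB-GFP cells. Cells were seeded 4 h, then exposed 16 h to compound (23 nl of library stock) in duplicate plates.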
row,Compound,"activity change (PNC), negative = inhibition"
1,O=C(OCC(=O)N1CCN(c2ccccc2)CC1)c1cccc(Cl)c1,inconclusive: -39.9%
2,Cc1ccc(CNC(=O)C2CCN(S(=O)(=O)c3c(C)noc3/C=C/c3ccco3)CC2)cc1,inactive: -0.0921%
3,CCOC(=O)C1(CC)CC(CSc2nc3ccccc3[nH]2)OC1=O (centres undefined),inconclusive: -39.1%
4,CC1CCCN(c2nc3c(c(=O)n(C)c(=O)n3C)n2CCSc2nc3ccccc3s2)C1 (centres undefined),inactive: 6.15%
5,CCCCNC(=O)/C(=C/c1ccccc1)NC(C)=O,inconclusive: -67.8%
6,CCn1c(SC(C)C(=O)NC2CCCc3ccccc32)nnc1-c1cccs1 (centres undefined),inconclusive: -44.6%
7,CN(C)C(=O)CSc1nc2ccccc2c(=O)[nH]1,inactive: -11.3%
8,Cc1cccc(NCCC#N)c1,active: -134%
9,CCOC(=O)c1cccnc1SCC(=O)N(C)c1ccccc1,inconclusive: -59.6%
10,Cc1ccc(N2CCN(c3ccc(C)cc3)C2c2ccccn2)cc1,active: -81.6%
11,CN(C)/C=C/C(=O)c1ccc(Cl)cc1,inactive: -11.6%
12,CC(C)n1c(-c2cccnc2)nc2cnccc21,active: -100%
13,O=C(Cn1cnc2c(nnn2-c2ccccc2)c1=O)N1CCCc2ccccc21,inconclusive: -65.2%
14,CCc1ccc(C(C)NC(=O)C2(C)CC2(Br)Br)cc1 (centres undefined),inconclusive: -46.9%
15,CC(C)(C)NC(=O)c1ccc2c(c1)C1C3CCC(C3)C1C(c1ccccc1)N2 (centres undefined),inconclusive: -36.8%
16,O=C(Cn1cc2c(n1)CCCC2)NC1CCCCCC1,inconclusive: -40.3%
17,COc1ccc(-n2nc(C(=O)NCC(=O)NCc3ccco3)c3ccccc3c2=O)cc1Cl,inactive: -15%
18,O=S(=O)(Nc1nc2ccccc2nc1N1CCN(c2ccccn2)CC1)c1ccc(Cl)cc1,inactive: -16.9%
19,Cc1ccc(C(NC(=O)N2CCOCC2)C(Cl)Cl)cc1F (centres undefined),inconclusive: -34.9%
20,O=C(Nc1nc(-c2ccc3ccccc3c2)cs1)C1CCN(S(=O)(=O)c2cccs2)CC1,active: -87.3%
21,CCc1ccc(-c2nc(CN3CCC(C(=O)NCc4ccccc4OC)CC3)c(C)o2)cc1,active: -97.5%
22,Cc1cc(/C=N/n2cnnc2)c(C)n1-c1ccc(Cl)cc1Cl,inconclusive: -34.9%
23,CCc1ccc(NS(=O)(=O)c2ccc3[nH]cc(C(=O)N(C)Cc4ccco4)c(=O)c3c2)cc1,active: -114%
24,CCOC(=O)Cn1c(-c2cccnc2Cl)nc2ccccc21,inconclusive: -48.4%

# Single entries from the results shown:
# Entry for CN(C)C(=O)CSc1nc2ccccc2c(=O)[nH]1 under activity change (PNC), negative = inhibition: inactive: -11.3%
# Entry for Cc1ccc(CNC(=O)C2CCN(S(=O)(=O)c3c(C)noc3/C=C/c3ccco3)CC2)cc1 under activity change (PNC), negative = inhibition: inactive: -0.0921%
# Entry for CCc1ccc(-c2nc(CN3CCC(C(=O)NCc4ccccc4OC)CC3)c(C)o2)cc1 under activity change (PNC), negative = inhibition: active: -97.5%

# The listing continues.

row,Compound,"activity change (PNC), negative = inhibition"
1,C/C(CC(=O)Nc1ccc(C)c(Cl)c1)=N\NC(=O)Cc1ccccc1,inactive: 27.2%
2,COc1ccc(OC)c2[nH]c(=O)c(CCNC(=O)c3ccc(S(=O)(=O)N4CCCCC4)cc3)cc12,inconclusive: -61.1%
3,C/C(N)=C(/C#N)C(=O)COC(=O)COc1ccc(Cl)cc1,inconclusive: -34.8%
4,O=C(CN1CCN(c2ccc(O)cc2)CC1)NC1CCCc2ccccc21 (centres undefined),inconclusive: -45.9%
5,COC(=O)N/N=C(\C)c1ccc2ccccc2c1OC(F)F,inactive: 67.7%
6,COc1ccc(Nc2nc(-c3c[nH]c4ccccc34)cs2)cc1,inactive: 58.2%
7,CC(NC(=O)NC(N)=O)(C(F)(F)F)C(F)(F)F,active: -109%
8,Cn1c(=O)c2cn(-c3cccc4ccccc34)cc2n(C)c1=O,inconclusive: -56.6%
9,CCOc1ccc(C2C=C(c3ccc(C)cc3)Nc3nnnn32)cc1 (centres undefined),inconclusive: -63.6%
10,O=C(c1cn(-c2ccccc2)nc1-c1cccs1)N1CCOCC1,inactive: 73.2%
11,CCc1c(C)nc(SCCOc2ccc(OC(C)C)cc2)[nH]c1=O,inconclusive: -48.6%
12,CCOc1ccccc1C(=O)N1c2ccccc2Sc2ccccc21,inactive: -15.4%
13,Fc1ccccc1NC(=S)NCCc1ccccc1,inconclusive: -30.6%
14,CCOc1ncccc1C(=O)OCc1ccc(C(=O)OC)o1,inconclusive: -50.1%
15,O=C(Nc1ccc(F)cc1)N1CCN(C/C=C/c2ccccc2)CC1,inactive: 24.1%
16,Cc1c(NC(=O)C2CCCCN2S(=O)(=O)c2ccc(Cl)cc2)c(=O)n(-c2ccccc2)n1C (centres undefined),inconclusive: -40.2%
17,COc1ccccc1N(CC(=O)NCc1cccnc1)S(C)(=O)=O,inconclusive: -51.3%
18,CCCCCCn1c(N2CCN(c3cccc(Cl)c3)CC2)nc2c1c(=O)[nH]c(=O)n2C,inconclusive: -58%
19,COc1cc(CC(=O)OCC(=O)Nc2cc([N+](=O)[O-])ccc2Cl)cc(OC)c1OC,inactive: 36.6%
20,CCOc1ccc(C(=O)OCCN(C)C)cc1,inconclusive: -49.1%
21,O=C(C1CCC(CNS(=O)(=O)c2cccc3nsnc23)CC1)N1CC=C(c2ccccc2)CC1 (centres undefined),inactive: 10.2%
22,Cc1nc2nc[nH]n2c(=O)c1NC(=O)c1c(-c2ccccc2Cl)noc1C,inconclusive: -48.3%
23,Nn1c(SCC(=O)Nc2ccc(F)cc2)nnc1-c1ccccn1,inconclusive: -30.8%
24,CCc1nnc(NC(=O)OCc2ccccc2)s1,inconclusive: -78.9%

row,Compound,"activity change (PNC), negative = inhibition"
1,COC(=O)c1cc(Br)c(=O)n(-c2ccc(F)cc2)c1,inactive: -2.87%
2,CCOC(=O)CN1C(=O)c2ccccc2C1=O,inconclusive: -35.6%
3,O=C(/C=C/c1cccc([N+](=O)[O-])c1)c1cccs1,inconclusive: -40.7%
4,Cc1ccc(/C=C2\C(=O)Nc3ccccc32)o1,inactive: -8.45%
5,O=C1CCCc2nc(N3CCN(Cc4ccccc4)CC3)ncc21,inconclusive: -67.2%
6,CN(C)S(=O)(=O)c1cccc(-c2cn3cc(Cl)ccc3n2)c1,active: -83.1%
7,Cc1nc2cccc(C)n2c(=O)c1Cl,inactive: -0.642%
8,COc1ccc(OC)c(C2C(C(=O)Nc3ccc(F)cc3)=C(C)Nc3nc(CCCO)nn32)c1 (centres undefined),inactive: -4.83%
9,O=C(/C=C/c1ccc([N+](=O)[O-])cc1)c1cccnc1,inconclusive: -66.2%
10,Cc1cc(NC(=O)C2CCCCC2C(=O)O)no1 (centres undefined),inconclusive: -36.7%
11,CCCC(=O)Nc1ccc(NC(=O)C2CC2)cn1,inactive: 17%
12,Cc1[nH]nc2c1C(=O)CC(C)(C)C2,inconclusive: -64.1%
13,Cc1cc(NC(=O)CSc2nnc(NC(=O)C3CC(=O)N(c4ccccc4C)C3)s2)no1 (centres undefined),inconclusive: -45.3%
14,Cc1cccc2nc(CSc3nc4[nH]ncc4c(=O)n3-c3cccc(Cl)c3)cc(=O)n12,inconclusive: -43.7%
15,CC(=O)c1c(C)[nH]c(C(=O)N2CCN(C(=O)c3ccco3)CC2)c1C,inconclusive: -56%
16,CCCOc1ccc(C(=O)NCC(c2cccs2)N(C)C)cc1 (centres undefined),inconclusive: -52%
17,O=C(NCc1ccco1)c1cnccn1,inconclusive: -38.5%
18,CC(C)(C)Nc1nc(Oc2ccc(=O)n(-c3ccccc3)n2)nc(N2CCOCC2)n1,inconclusive: -34.2%
19,Cc1ccccc1NC(=O)c1cc(S(=O)(=O)N2CCOCC2)cs1,inconclusive: -44.5%
20,O=C(Nc1ccc(Br)cc1)c1cccnc1N1CCCCC1,inconclusive: -35.6%
21,O=c1c2[nH]c3ccccc3c2ncn1Cc1cccnc1,inconclusive: -79%
22,CCCc1nc(N)c(C#N)c(-c2cccnc2)c1CC,inconclusive: -53.9%
23,COc1cc2c(cc1OC)C(c1ccsc1)CC(=O)N2 (centres undefined),inconclusive: -35.6%
24,Cc1ccc2nc(C3CCN(C(=O)c4ccco4)CC3)[nH]c2c1,inactive: -23.3%

row,Compound,"activity change (PNC), negative = inhibition"
1,COC(=O)c1c(NC(=O)c2ccco2)sc(C(=O)Nc2ccc(F)cc2)c1C,inconclusive: -37.9%
2,N=c1c2c(n(Cc3cccc(Cl)c3)c3c1CCC3)CCCC2,inactive: 95.1%
3,CCOC(=O)c1ccc(NC(=O)CSC2=NC(=O)C(CC)C(=O)N2)cc1 (centres undefined),inactive: -7.61%
4,O=C(NCCCN1CCOCC1)C1(c2ccccc2)CCOCC1,inconclusive: -57.8%
5,CCOC(=O)C1C(=O)NC(C)C1c1ccccc1 (centres undefined),inconclusive: -32.3%
6,CCOC(=O)c1c(C)[nH]c(/C(C)=N/O)c1C,inactive: -1.87%
7,O=C1C2C3C=CC(C3)C2C(=O)N1c1ccc(-c2nc3ccccc3o2)cc1 (centres undefined),inconclusive: -37.2%
8,Nc1n[nH]c(S(=O)(=O)CCCc2ccccc2)n1,inconclusive: -37.4%
9,CCOC(=O)c1c(N)sn(-c2ccccc2)c1=S,inactive: -5.46%
10,Cc1cc2cc(C)c3nnc(SCc4ccccn4)n3c2cc1C,inconclusive: -52.1%
11,O=C(CSc1nc2ccccc2c2nc3ccccc3n12)NCc1ccco1,active: -83.2%
12,Cc1c(S(=O)(=O)Nc2ccc3c(c2)OCCO3)c(=O)n(C)c(=O)n1C,inconclusive: -58.1%
13,CC(C)OCCCNC(=O)c1ccc(NS(C)(=O)=O)cc1,inconclusive: -40%
14,COc1ccc2cc(C#N)c(NC(C)C)nc2c1,inconclusive: -73.2%
15,CC1(C)C(C#N)=C(N)OC2=C1C(=O)CCC2,inconclusive: -52.9%
16,Cc1cccc(C)c1NC(=S)NCCc1ccccn1,active: -105%
17,Cc1cc(C)nc(N2CCC(C(=O)NCCc3ccccc3)CC2)n1,inconclusive: -31.3%
18,CC(=O)c1ccc(NC(=O)c2ccccc2Sc2ncnc3sc(C)c(C)c23)cc1,inconclusive: -38.7%
19,O=S1(=O)CCN2C=Nc3sc4c(c3C2=N1)CCCC4,inactive: -6.32%
20,CCCCN(CCCC)C(=S)NC(=O)C(C)(C)C,inconclusive: -49.9%
21,O=C(c1ccco1)N1CCN(c2ccc(Cl)cc2)CC1,inconclusive: -78.5%
22,COc1ccc(O)c(-c2cc(-c3ccccc3[N+](=O)[O-])[nH]n2)c1,inactive: -24.5%
